Out of some 300,000 compounds screened, about 3,700 (1.2%) were called active. The shares of active, inactive and inconclusive entries below differ from those in the screen. Calls come from the whole dose curve; tested in HEK293 cells. Where the call is inconclusive, the potency comes from a doubtful curve fit.
test: qHTS for Inhibitors of binding or entry into cells for Lassa Virus; conditions: Lassa virus pseudotype entry inhibition, cell reporter; activity change, negative = inhibition: at 37.9 µM (top of the series) unless noted; note: nearly all actives have a fitted effect of over 50% in size
% is set by controls: 0 for no effect and ±100 for the full control effect; potency is the fitted concentration of half-maximal effect.

SMILES	Potency	activity change, negative = inhibition
COc1ccc2cc(CN(CCCN3CCOCC3)Cc3nnnn3C3CCCC3)c(=O)[nH]c2c1	inactive	–
Cc1[nH]c(-c2ccc(F)cc2)cc1C(=O)N1CCN(c2cccc(Cl)c2)CC1	inconclusive: 7.08 µM [inhibitor, partial curve, poor fit]	–
CSc1cccc(NC(=S)N(CCCN2CCCC2)Cc2cccs2)c1	inconclusive: 12.6 µM [inhibitor, partial curve, poor fit]	–
COC(=O)c1cc(-c2ccc(OC)cc2)nc2nc(SC)[nH]c(=O)c12	inconclusive: 35.5 µM [inhibitor, single point]	–
CC(C)c1ccc(OCc2ccc(C(=O)N3CCN(c4ccccn4)CC3)cc2)cc1	inconclusive: 35.5 µM [inhibitor, single point]	–
COc1ccccc1C1CC(=O)NC(C)=C1C(=O)OCC(C)C (stereo not drawn)	inconclusive: 22.4 µM [inhibitor, partial curve, poor fit]	–
Cc1ccc(Cl)cc1N1CCN(C(=O)CSc2cc(=O)n(C)c3ccccc23)CC1	inconclusive: 14.1 µM [inhibitor, single point]	–
COc1cccc(C(=O)NCCS(=O)(=O)N(C)Cc2ccccc2)c1	inactive	–
C=CCn1c(SCC(=O)Nc2cc3oc4ccccc4c3cc2OC)nnc1-c1cnccn1	inactive	–
Cc1ccccc1CNC(=O)c1ccccc1N(C)S(=O)(=O)c1ccccc1	inactive	–
O=C(N/N=C/c1ccc(Sc2ccccn2)o1)c1cc2ccccc2cc1O	inactive	–
O=C(Nc1cnc2ccccn2c1=O)c1ccc(Cl)cc1Cl	inconclusive: 3.55 µM [inhibitor, full curve, poor fit]	–
CCOc1ccc(S(=O)(=O)NCCc2c(C)[nH]c3c(Cl)cccc23)cc1C	inactive	–
Cc1c(C(=O)Nc2ccc(F)c(C(F)(F)F)c2)sc2nc(-c3ccccc3)cn12	inactive	–
COc1cc(CNC2CCCC2)c(Br)cc1OCc1ccccc1	inconclusive: 35.5 µM [inhibitor, single point]	–
Nc1ncnc(Sc2ccc(Cl)cc2)c1[N+](=O)[O-]	inconclusive: 11.2 µM [inhibitor, partial curve, poor fit]	–
Cc1cc(N/N=C/c2cccc(F)c2)nc(NCc2ccccc2)n1	inconclusive: 20 µM [inhibitor, single point]	–
O=C(/C=C/c1ccc(Cl)c([N+](=O)[O-])c1)c1ccc(O)cc1	inconclusive: 28.2 µM [inhibitor, single point]	–
CC1CCN(S(=O)(=O)c2ccc3c(c2)N(CC(=O)NCCCN2CCCCC2)C(=O)CS3)CC1	inactive	–
CC(C)N(C(=O)Cn1cc(S(=O)(=O)Cc2ccc(Br)cc2)c2ccccc21)C(C)C	inactive	–
Cc1nn(C)cc1CNC(=O)c1cc2n(n1)C(C(F)(F)F)CC(c1cccs1)N2 (stereo not drawn)	inconclusive: 25.9 µM [inhibitor, single point]	–
CCCCn1c(N)c(N(CCOC)C(=O)CSCc2c(C)noc2C)c(=O)[nH]c1=O	inactive	–
O=C(Nc1ccccc1)c1cc2n(n1)C(C(F)(F)F)CC(C1CC1)N2 (stereo not drawn)	inactive	–

SMILES	Potency	activity change, negative = inhibition
CC(=O)Nc1ccc(NC(=O)/C(Cl)=C/c2ccccc2)cc1	inactive	–
CCOc1ccc(NC(=O)Nc2nc(SCC)ns2)cc1	inconclusive: 15.8 µM [inhibitor, single point]	–
COc1ccc(C(=O)Nc2cc(-c3nc4ccccc4s3)ccc2OC)cc1	inconclusive: 6.31 µM [inhibitor, single point]	–
CCOC(=O)C1=C(Nc2ccccc2)CC(C)(O)C(C(=O)OCC)C1c1ccc(Cl)cc1 (stereo not drawn)	inconclusive: 31.6 µM [inhibitor, single point]	–
Cc1ccc2ccc(S(=O)(=O)NCc3ccco3)cc2c1	inactive	–
NNc1nc(-c2ccccc2Cl)nc2sc3c(c12)CCCC3	inconclusive: 10 µM [inhibitor, partial curve, poor fit]	–
Cc1ccc(NC(=O)c2noc3c2CCCCC3)cc1	active: 14.6 µM	–
COc1ccc(OC)c(CNC(=O)CN2N=C(c3ccc(Cl)cc3)CCC2=O)c1	inconclusive: 5.62 µM [activator, single point]	–
CCc1nc(-c2ccc(-c3ccc(OC)cc3)nc2OC)no1	inconclusive: 25.9 µM [inhibitor, single point]	–
CCOc1c(Cl)cnn(-c2ccc(C)cc2)c1=O	inactive	–
O=C(NCCc1ccc(Cl)cc1)C(=O)NCC(c1cccs1)S(=O)(=O)c1cccs1 (stereo not drawn)	inconclusive: 10 µM [inhibitor, partial curve, poor fit]	–
CCOc1ccc(-c2nc(CSCC(=O)NCCc3ccc(OCC)c(OCC)c3)c(C)o2)cc1	inconclusive: 10 µM [inhibitor, partial curve, poor fit]	–
Cc1ccc(S(=O)(=O)NC(CC(=O)O)c2ccccc2)cc1 (stereo not drawn)	inconclusive: 2.31 µM [inhibitor, partial curve, poor fit]	–
CSc1nc2c(sc3ccccc32)c(=O)n1Cc1ccc(C)cc1	inconclusive: 3.16 µM [activator, single point]	–
COC(=O)N/N=C/c1cn(CCCOc2ccc(C)cc2)c2ccccc12	inconclusive: 20.6 µM [inhibitor, single point]	–
CCn1c(=O)c(=O)n(CC)c2cc(N3CCCCC3)c(NC(=O)c3ccccc3OC)cc21	inactive	–
COc1ccccc1Cn1c(=S)[nH]c2cc(C(=O)NCC3CCCO3)ccc2c1=O (stereo not drawn)	inconclusive: 7.94 µM [inhibitor, partial curve, poor fit]	–
Cc1ccn2c(=O)c(C(=O)NC3CCCCC3C)c(O)nc2c1 (stereo not drawn)	inactive	–
C/C(=N\NC(=O)c1ccccc1)c1cccc(Br)c1	inconclusive: 4.47 µM [activator, full curve, poor fit]	–
CC/C(=N\NC(=S)Nc1cccc(C)c1)c1ccccc1	inconclusive: 2.82 µM [inhibitor, full curve]	–
O=C(CN1CCN(C(=O)c2ccccc2)CC1)NC(=O)NCCC1=CCCCC1	inconclusive: 0.316 µM [activator, partial curve, poor fit]	–
CCCN1CCN(CC2=C(C(=O)OCC)C(c3ccc(OC(C)C)cc3)NC(=O)N2)CC1 (stereo not drawn)	inconclusive: 5.01 µM [activator, full curve, poor fit]	–
CCN(C(=S)NCc1ccccc1)c1cccc2ccccc12	inconclusive: 35.5 µM [inhibitor, single point]	–

In the list so far, these have a nitro group on carbon.
SMILES	Potency	activity change, negative = inhibition
Nc1ncnc(Sc2ccc(Cl)cc2)c1[N+](=O)[O-]	inconclusive: 11.2 µM [inhibitor, partial curve, poor fit]	–
O=C(/C=C/c1ccc(Cl)c([N+](=O)[O-])c1)c1ccc(O)cc1	inconclusive: 28.2 µM [inhibitor, single point]	–

Next part:

SMILES	Potency	activity change, negative = inhibition
COc1ccc(-c2noc(-c3ccc(N4CCN(c5ccccc5OC)CC4)c([N+](=O)[O-])c3)n2)cc1	inactive	–
CCCc1cc(=O)[nH]c(Nc2cc(C)cc(C)c2)n1	inactive	–
Cc1c(C(=O)N(C)C)sc2c1c(=O)n(-c1ccc(Cl)c(Cl)c1)c(=O)n2CC(=O)N1CCCCC1C (stereo not drawn)	inconclusive: 14.1 µM [activator, single point]	–
CC(=O)N1N=C(c2c(-c3ccccc3)c3cc(C)ccc3[nH]c2=O)CC1c1ccco1 (stereo not drawn)	inconclusive: 11.2 µM [inhibitor, partial curve, poor fit]	–
COc1cccc(Cn2c(C)c(CNC3CCCCC3)c(C(=O)O)c2C)c1	inconclusive: 2.24 µM [activator, partial curve, poor fit]	–
COc1ccc(Nc2nc(N3CCCCC3)nc(N3CCCCC3)n2)c(OC)c1	inactive	–
Cc1cccc2cc(CN(CC3CCCO3)C(c3nnnn3Cc3ccco3)C(C)C)c(=O)[nH]c12 (stereo not drawn)	inconclusive: 28.2 µM [inhibitor, single point]	–
CCOC(=O)CN1C(c2ccc(O)cc2)Nc2ccc(Br)cc2C1c1ccccc1 (stereo not drawn)	inconclusive: 22.4 µM [inhibitor, single point]	–
CSCCC(NC(=O)c1ccc(Cl)c([N+](=O)[O-])c1)C(=O)N1CCN(C/C=C/c2ccccc2)CC1 (stereo not drawn)	inconclusive: 35.5 µM [inhibitor, partial curve, poor fit]	–
CCc1ccc(NC(=O)CSc2nc(-c3cccc(OC)c3)nc3c2Cc2c(CO)cnc(C)c2O3)cc1	inactive	–
COC(=O)CNc1cc(S(=O)(=O)N2CCCCC2)ccc1Oc1cccc(C)c1	inconclusive: 35.5 µM [inhibitor, partial curve, poor fit]	–
CCN(CC)c1nc(C#N)cc(-c2ccc(OC)cc2)n1	inconclusive: 7.08 µM [inhibitor, partial curve]	–
CN(C)c1ccc(N2CC(C)(C)C2=O)cc1	inconclusive: 11.2 µM [activator, partial curve, poor fit]	–
O=C(NC(=S)NCCC1=CCCCC1)c1ccc(Br)o1	inactive	–
CCN(C(=O)CSc1ccc2ccccc2n1)C1CCCCC1	inconclusive: 1.12 µM [activator, partial curve, poor fit]	–
Cc1cc2oc(C(=O)Nc3cccc(-c4nc5ccccc5o4)c3)c(C)c2cc1C	–	inconclusive: 20.4% [activator] [at 46.1 µM]
Nc1nnc(SCc2ccc(F)cc2)s1	inconclusive: 23.1 µM [activator, single point]	–
CCCN(CCC)Cc1c(C(=O)N/N=C/c2ccc(Br)cc2)nnn1-c1nonc1N	inconclusive: 22.4 µM [inhibitor, single point]	–
N#Cc1c(N)nc(SCC(=O)OCc2ccccc2)c(C#N)c1-c1ccco1	inactive	–
O=C(Nc1ccccc1Cl)c1cc2ccccc2o/c1=N\O	inconclusive: 5.62 µM [activator, single point]	–
CCOc1ccc(NC(=O)CSc2nnc(CNC(=O)C34CC5CC(CC(C5)C3)C4)n2CC)cc1	inactive	–
O=C(/C=C/c1cccc([N+](=O)[O-])c1)NC(=S)Nc1ccc(CN2CCOCC2)cc1	inconclusive: 6.31 µM [inhibitor, full curve, poor fit]	–

Compounds above containing a COOH group (2):
SMILES	Potency	activity change, negative = inhibition
Cc1ccc(S(=O)(=O)NC(CC(=O)O)c2ccccc2)cc1 (stereo not drawn)	inconclusive: 2.31 µM [inhibitor, partial curve, poor fit]	–
COc1cccc(Cn2c(C)c(CNC3CCCCC3)c(C(=O)O)c2C)c1	inconclusive: 2.24 µM [activator, partial curve, poor fit]	–
